# According to PMC3534531:
# Results are given in words; binding and its absence hold for the method and conditions named. Some results given as binding are weak or reduced against the parent protein; the word gives no strength.
# T1: hypothetical protein EUO CPn0561 (Chlamydia pneumoniae) (UniProt Q9Z7Z2)
# T1 sequence: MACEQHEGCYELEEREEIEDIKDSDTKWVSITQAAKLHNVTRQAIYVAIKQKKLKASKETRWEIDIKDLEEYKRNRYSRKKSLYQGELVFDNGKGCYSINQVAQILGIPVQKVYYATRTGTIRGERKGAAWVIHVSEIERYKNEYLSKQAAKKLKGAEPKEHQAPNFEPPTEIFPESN
# Target: T1, hypothetical protein EUO CPn0561 (Chlamydia pneumoniae)
# Assay: two-hybrid; ORFeome-wide library screen: bait in pBD-Gate2 (GAL4 DNA-binding domain), pooled Cpn ORFeome prey library in pAD-Gate2, co-transformed into S. cerevisiae AH109; selection on SD/-trp-leu-ade-his, at least 4 days at 28°C; recovered preys retested with the bait or empty pBD-Gate2 and sequenced
row,binding,Binder
1,binds,"PTS phosphocarrier protein Hpr ptsH CPn0037 (protein, UniProt Q9Z9E4 1-108) MNEPTRTYLESEKDTQDQIEELQATCIVKNAAGIHVRPAGVIVRLFDGEPCDVHFTYAGKTINAKSIMSILMLGAPQGGEILVTIRSKEAHRILQKIQDAFSSGFGEL"
2,binds,"hypothetical protein EUO CPn0561 (protein, UniProt Q9Z7Z2 1-178) MACEQHEGCYELEEREEIEDIKDSDTKWVSITQAAKLHNVTRQAIYVAIKQKKLKASKETRWEIDIKDLEEYKRNRYSRKKSLYQGELVFDNGKGCYSINQVAQILGIPVQKVYYATRTGTIRGERKGAAWVIHVSEIERYKNEYLSKQAAKKLKGAEPKEHQAPNFEPPTEIFPESN"
